This note sets out measurements from PMC9887672, “Predicting human cardiac QT alterations and pro-arrhythmic effects of compounds with a 3D beating heart-on-chip platform” (Toxicological Sciences, 2022).

Molecules are shown by their SMILES. “Also recorded” adds a separate entry of the source.

The data set relates to uHeart 3D cardiac microtissues (h-iPSC-CMs and dermal fibroblasts in fibrin). The data set can be described thus: Drug screening on uHeart: field potential recording (FPDcF, BP, AMP, arrhythmic events, beating cessation).

In the case of `COC(=O)C1=C(C)NC(C)=C(C(=O)OC)C1c1ccccc1[N+](=O)[O-]` [Nifedipine], the “uHearts that ceased beating over uHearts tested” value is recorded as 1 over 3. Also, for the setting “concentration causing FPDcF change by 10% vs baseline”, the “[%FPDcF] >LOW, drug concentration” value is recorded as 0.001 µM. Also, for the setting “concentration causing FPDcF change by 15% vs baseline”, the “[%FPDcF] >MID, drug concentration” value worked out at 0.005 µM. Also, the “[%FPDcF]>HIGH, drug concentration” value (concentration causing FPDcF change by 20% vs baseline) is recorded as 0.01 µM. Besides, the “Effect on spike amplitude AMP (in words)” value (incremental doses) was “decreased the AMP”. For the same molecule, the “Effect on FPDcF (in words)” value (incremental doses, change vs baseline) is recorded as “concentration-dependent shortening of the FPDcF; also recorded: tendency to shorten the FPDcF passing the HIGH threshold already at medium dosages”. For the setting “score vs ratio effective concentration/fETPC, Figure 6D”, the “TdP risk category proposed from uHeart score” value is “low-risk”.
